## Screening data, single-dose tests

From ChEMBL document CHEMBL3988442, “University of Dundee, Small-Polar-MMV Screening Library” (2021).

Each number is a percent effect as filed.
How 0% and 100% were set is not recorded. Most values in the screen are low, and negative values occur.
The compounds are a random part of those screened.
Two or more numbers in one place are separate tests of the same structure; such repeats can differ widely.

A: 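Assay of Toxoplasma gondii numbers, read through their beta-galactosidase reporter with a colour substrate. Compounds at 10 µM. Higher reads as fewer parasites (inferred from which compounds were picked for retests). Size under these conditions: about 67,000 compounds, about 260 of them at 50% or above in at least one test.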
B: 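Cell assay of Leishmania donovani living inside macrophages; the read-out is not stated. Compounds at 30 µM. Higher reads as stronger inhibition (inferred: compounds with an IC50 in retests scored well above the rest). About 69,000 compounds were tested under these conditions; 1.5% (about 1,000) showed 50% or more at least once.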

- CCNc1cc2c(nn1)CCN(C(=O)c1cccc3c1OCO3)C2 | A: -24.61%; B: 2.72%
- CCN(Cc1ccc(N(C)C)cc1)S(=O)(=O)c1cc(Br)ccc1OC | A: -4.36%; B: 11.12%
- CC(=O)N1CCC(Cc2nccnc2-c2ccnn2C)CC1 | A: 8.984%; B: -1.504%
- CCCc1cnc(C)nc1N1CCC2(CCCO2)CC1 | A: -5.62%; B: -4.876%
- CCN(Cc1ccc2c(c1)OCCO2)C(=O)c1ccc(C)[nH]c1=O | A: -19.72%; B: 13.82%
- [H][C@@]12COC[C@]1(COc1cccnc1)CN(C(=O)C1=CCCC1)C2 | A: -3.389%; B: -19.16%
- COc1ccc(CCN2CCC(N3CCN(C)C3=O)CC2)cc1 | A: -1.059%; B: 7.707%
- [H][C@]12CCCCN1CCC[C@H]2CNC(=O)CCn1ccc2cc(Br)ccc21 | A: 20.22%; B: 94.12%
- CN(Cc1cnn(C)c1)C(=O)Cc1ccc2c(c1)OCCO2 | A: 5.182%; B: 1.956%
- CN(C)CCN1CCCC12CCN(C(=O)c1ccoc1)CC2.O=C(O)C(F)(F)F.O=C(O)C(F)(F)F | A: -30.19%; B: 20.29%
- COc1cc(N2CCC3(CC2)C(c2ccncc2)CC(=O)N3C)ncn1 (stereo not given) | A: 3.411%; B: 31.52%
- Cc1csc(C(Cc2ccsc2)NC(=O)C2CCN(S(C)(=O)=O)CC2)n1 (stereo not given) | A: 13.13%; B: -5.095%
- Cc1ccc(-c2n[nH]cc2CNCCn2cccn2)o1 | A: 4.959%; B: 38.33%
- CCC(C)(C)n1nnnc1C(c1cccs1)N1CCCCC1 (stereo not given) | A: -7.924%; B: 14.55%
- Cn1ccc(C(=O)NC2CCC23CCN(C(=O)C2CCOCC2)CC3)c1 (stereo not given) | A: 0.7983%; B: 26.76%
- O=C(CCc1ccsc1)NCC1CCN(C2CC2)C1 (stereo not given) | A: 4.705%; B: 14.46%
- CC(C)(C)n1ncc2c1NC(=O)CC2c1cccc(O)c1 (stereo not given) | A: -8.005%; B: 21.49%
- Cc1cccc(-c2nc(N)nc3c2CN(C(=O)c2ccncn2)C3C)c1 (stereo not given) | A: 1.398%; B: 10.76%
- CCS(=O)(=O)CCSc1ccc(Cl)cc1 | A: -9.256%; B: 0.5458%
- COc1ccc(N(Cc2ccco2)C(=O)C2CCCO2)cc1F (stereo not given) | A: -6.992%; B: 1.714%
- CC(C)CCN1CCc2[nH]nc(C(=O)N3CC=CC3)c2C1.O=C(O)C(F)(F)F.O=C(O)C(F)(F)F | A: 14.58%; B: 31.26%
- O=C(C1CCOCC1)N1CCC(O)(Cn2ccc3ccncc32)CC1 | A: -0.25%; B: -5.34%
- CCN(Cc1ccncc1)c1cc(C2CCNCC2)nc(C)n1 | A: 30.82%; B: 4.844%
- CC(=O)N1CCC(c2ccnc(Nc3ccc(C)cn3)n2)C1 (stereo not given) | A: -0.2189%; B: -20.48%
- O=C(CCn1cccn1)N1CCC(c2nnc(-c3ccsc3)o2)CC1 | A: 15.35%; B: 13.55%
- [H][C@]12CC[C@]([H])(CN(C(=O)C3CCC3)C1)N(C(=O)c1cccc(N(C)C)c1)C2 | A: -1.217%; B: 5.714%
- CSC(C)C(=O)NCc1ccc(-n2cncn2)nc1 (stereo not given) | A: 4.169%; B: -2.039%
- O=C(NCCN1CCOCC1)C1=NOC2(CCN(Cc3nccs3)C2)C1 (stereo not given) | A: 4.935%; B: 29.87%
- Cc1ncsc1CCNC(=O)Cn1nc(C)n(Cc2ccccc2)c1=O | A: -8.989%; B: 9.373%
- Nc1nccc(C2CCCN2CCc2ccccc2)n1 (stereo not given) | A: -12.53%; B: 34.94%
- CC(O)CN1CCN(C(=O)c2ccc(CN(C)C)cc2)CC1 (stereo not given) | A: -59.48%; B: 10.25%
- CC(C)NC(=O)N1CCN(CCn2cccn2)c2ncccc2C1.O=C(O)C(F)(F)F | A: -51.91%; B: 20.93%
- O=S(=O)(NC1=NCN(CCc2cccs2)CN1)c1ccccc1 | A: -3.586%; B: 15.99%
- CC(C)Nc1ncnc2c1CCN(C(=O)CN(C)C)CC2 | A: -10.18%; B: 8.966%
- CS(=O)(=O)c1nccn1Cc1ccc(Cl)cc1 | A: -5.89%; B: 12.1%
- Cn1nnc2c1C(COCC1CC1)CN(C(=O)Cc1cccs1)C2 (stereo not given) | A: 56.28%; B: -2.4%
- Cc1nc(CN2CCC3(CCN(c4ncc(F)cn4)C3)C2=O)cs1.O=C(O)C(F)(F)F (stereo not given) | A: -3.659%; B: 10.11%
- Cc1cc2ccccc2n1CCC(=O)N1CCC[C@H]1C(N)=O | A: 2.779%; B: 15.27%
- [H][C@@]12CCN(C(=O)c3ccoc3)CC[C@@]1([H])N(c1cccnc1)CCO2 | A: 12.66%; B: -1.834% & 17.12%
- COc1ccc(C[C@H]2CN(c3nnc(C)s3)CC[C@@H]2OC)cc1.O=C(O)C(F)(F)F | A: 1.816%; B: 10.11%

The first 4 entries again:

{"compound": "CCNc1cc2c(nn1)CCN(C(=O)c1cccc3c1OCO3)C2", "A": -24.61, "B": 2.72}
{"compound": "CCN(Cc1ccc(N(C)C)cc1)S(=O)(=O)c1cc(Br)ccc1OC", "A": -4.36, "B": 11.12}
{"compound": "CC(=O)N1CCC(Cc2nccnc2-c2ccnn2C)CC1", "A": 8.984, "B": -1.504}
{"compound": "CCCc1cnc(C)nc1N1CCC2(CCCO2)CC1", "A": -5.62, "B": -4.876}